The whole screen tested about 52,000 sequences, of which about 210 (0.4%) were called active.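 The calls were made as follows: active = gene whose silencing raises cell survival under the drug, median off-target-corrected z-score across its silencing RNAs 2 or more; inactive = the rest.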 The list shows a part of the results.

The assay can be described thus: Resistance to Poly (ADP-Ribose) Polymerase inhibitor: Gene Identification via Genome-wide siRNA Screen. The following applies: mouse BRCA2 R2336H ES cells, olaparib, CellTiter-Glo viability; active compounds read high. In short, it runs like this: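 Genome-wide siRNA screen (3 siRNAs/gene, 20 nM) in mouse ES cells carrying hypomorphic BRCA2 R2336H; olaparib 500 nM added 48 h post-transfection, CellTiter-Glo viability 72 h later. Normalized to plate-median negative control; MAD z-scores, gene median, seed-adjusted.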
Take GCUCAGUAAGGUUACUUCCTT against Epb4.9: the z-score is inactive: 0.857.

As for GGAGGUAGCCCUUCAGAUGTT against Punc, the z-score is inactive: -2.56.

With CGAGUAAGUUCAAUAGACCTT against Olfr954, the z-score is inactive: 1.22.

Consider GGUAUUAGAAAUCCUGAUCTT against Miz1, for which the z-score is inactive: -0.33.

“GGCUUUCGCCUGAUUGGGUTT against 9130416B15”: the z-score is inactive: 1.27.

Take GGACAAGUUCAGCUACAUCTT against Ranbp9: the z-score was inactive: 0.141.

With GCUCCUACUGUCCAGCAAUTT against Dusp18, the z-score was inactive: 2.63.

GGGAUAUAGAACUGUUGAUTT against Olfr1048: the z-score is inactive: -0.278.

With GCUAGUCUAGCCAUUGUCATT against Lamp3, the z-score is inactive: -0.634.

As to GCCCUCUUGUGAUUAAGCATT against Esr1, the z-score was inactive: 0.0447.

For CCAUCAGCCUUUAUAAACUTT against Ywhah, the z-score was inactive: 0.577.

As for GGUGAUAUCUUUCCAUCUUTT against Wiz, the z-score is inactive: 0.462.

For “GGACCAUGCUCCCUACUUATT against 1700016G05Rik”, the z-score is inactive: -1.63.

Regarding GGAAGAAGAGGAGGAGAUGTT against Zfp67, the z-score is inactive: -0.941.

Consider GGCAUUCACGUGUACUCCUTT against Pres, for which the z-score was inactive: 0.478.

For GGACGAGUGCCUGUUUUCATT against Med8, the z-score is inactive: -0.587.

Consider “CCAUGGAAACUGAAUUCUGTT against 3230401I01Rik”, for which the z-score was inactive: 0.382.

Regarding GGACAUAGAAUCUUUACAGTT against Wdr9, the z-score was inactive: -0.592.

Regarding CCUAAACUGCUUGCUGAUATT against Olfr1204, the z-score was inactive: 0.755.

As to GUGCUAUUCAUGCACAGCATT against Psca, the z-score is inactive: -1.7.

For “CGGUGAAAAACCUAUGUAUTT against 1700028P14Rik”, the z-score was inactive: 0.894.

Consider GCUCUUAGAUACAGUUUUATT against Aprin, for which the z-score was inactive: -0.724.

Turning to “GGAAUGCUAUGUGUAUAGUTT against 9130023D20Rik”, the z-score is inactive: 1.07.

Take GGUUUGAGCAACUAACUAATT against Lhx2: the z-score is inactive: 1.05.

As for CCAAUGAGAGUUCUAUGAUTT against Cxxc4, the z-score is inactive: -0.54.

GGAUCAAAUGUGGCAUAUUTT against Rassf5: the z-score is inactive: -1.64.

Turning to GCCUUUGCGUUAUGCUACUTT against Olfr610, the z-score is inactive: -1.02.

Regarding GGCACUGCAUAUUUGGUAUTT against Dmrtc2, the z-score is inactive: -0.914.

With GGUAAUCAGUAGUGACUUATT against Mkln1, the z-score was inactive: 0.498.

Take GGCAUCAUACUGAUUGGUGTT against Suclg1: the z-score is inactive: 0.058.

Take GGUCCUCAUUUAUUGAAAUTT against Cdkn1b: the z-score was inactive: 0.481.

“GGACCUCUUCUCUGUCUUUTT against 2300004C15Rik”: the z-score was inactive: -1.27.

For “GGCCCUUACAGAGUCUGGATT against B930095G15Rik”, the z-score was inactive: -1.39.

As for GGCUUCCUGAUGGAUUUAUTT against Stk11ip, the z-score is inactive: -2.01.

For the sequence “GCAAUGGUGAGCAUUAAAATT against 2010002M12Rik”, the z-score is inactive: 0.458.

Take GGACAAUGAAGAUUUGGAATT against Ush2a: the z-score is inactive: 0.208.

In the case of CCAAGAAGCUCCCACGAUATT against Gm839, the z-score is inactive: 0.641.

For the sequence CGGCCUGGGUCCCGUGGACTT against LOC328779, the z-score was inactive: 2.22.

CCACAUUCAGCCAAUGAAGTT against Olfr195: the z-score was inactive: -0.0256.

With GGUGUAUGAACAGCUCUAUTT against Lin7b, the z-score was inactive: 0.263.

GGGCUCCUCAAUCACAAAUTT against Slc27a5: the z-score is inactive: -0.504.

As to CGUGGCCGUUAGUUGUAAATT against BC059177, the z-score was inactive: 0.289.

With GGGAUUGAGAUCCUCAUACTT against Olfr1179, the z-score is inactive: 0.762.

For the sequence GCUCCAAUAGCGUAUAUUATT against Pigt, the z-score is inactive: -1.62.

As to GGUCAUAGCUUAGAAGGUGTT against Rhov, the z-score is inactive: -1.09.

On to GGACCAUAAAACAAGUAUCTT against AI790298, for which the z-score was inactive: -0.629.

As to GCAAUACGUUUGUGCAGAATT against Cacna1g, the z-score is inactive: -2.42.

As for “GCAGUAAACUCCUAGGUCATT against 2410066E13Rik”, the z-score is inactive: -0.601.

As for CCUUCAGACUGUCAACAAUTT against Chrm2, the z-score was inactive: 0.451.

In the case of “GGAUGGGUUGAAUUGUUUGTT against C730040N12Rik”, the z-score was inactive: -0.104.

GGAAGGUCAAAGUCCUUUATT against Pitpnm2: the z-score is inactive: 1.18.

As to GCCUGUUUAGAGCGUAAACTT against Numb, the z-score was inactive: 0.888.

In the case of GGCUACAAUAAUGUUUCCCTT against Pglyrp3, the z-score was inactive: 0.155.

GGCUUCCACAAAGAAAGACTT against Tsga8: the z-score is inactive: 0.591.

As to GGUGUACAUGGACAUCAAGTT against Ppie, the z-score is inactive: 1.39.

On to GGCAGAUAGACAACUUUCUTT against Olfr92, for which the z-score was inactive: -1.19.

“GGGUUAGCUCCCGUCAUCATT against 9830132G07Rik”: the z-score is inactive: 0.867.

In the case of GGCCAACUGGUAUUUCUUGTT against Acadm, the z-score was inactive: -0.486.

As for GGAAAUGAAGCAGACUGUGTT against Htr2b, the z-score was inactive: 0.262.

Take GCCGGGCAAUGAAUUUACUTT against Ms4a5: the z-score is inactive: 2.39.

For CCCUGAAGUGUAACUUCAATT against BC055811, the z-score is inactive: 0.103.

For GGAGACUCAUCCAAUAAAUTT against V2r1b, the z-score was inactive: -0.0936.

As to GGCAAUUCUCUGUAUCCACTT against LOC223706, the z-score is inactive: -0.0335.

For the sequence “GCCCUUGAAGAUCAUUAGCTT against 2810443J12Rik”, the z-score is inactive: -0.0762.

For the sequence CCCUAAGUCCGUUAAUGUUTT against Wdhd1, the z-score was inactive: 0.00913.

For CGCAGCCUUUACCUCCGAATT against BC052360, the z-score was inactive: 0.543.

As for “CCUAAACUACAGGAAUUUATT against D830014E11Rik”, the z-score was inactive: 0.81.

CCCACAGUUCUGAAGGGAGTT against Olfr1215: the z-score was inactive: 0.58.

For the sequence GGUACUGGAAAGAAAUGAGTT against Slac2b, the z-score is inactive: 0.68.

In the case of CGAUUUUCCUCAAUAUCUCTT against Pcdhgc4, the z-score was inactive: 0.352.

Regarding GGGACCAGAACAAAUACAATT against Klc3, the z-score was inactive: -0.49.

For AGUAUGGCAAAAGGGAACATT against LOC435565, the z-score is inactive: 0.643.

Take CCAUUCGAUACCUCGUGCATT against Dhps: the z-score is inactive: 2.72.

In the case of GGUUCUACCUCAAGAUGUUTT against Srd5a2, the z-score is inactive: -1.13.

Regarding GCAGCUAAAACAAGUUUGATT against Sntg2, the z-score was inactive: 0.0958.

As to GGACCUUCGGAAUGACGAGTT against Rhoa, the z-score is inactive: -1.69.

In the case of “GGAGAGAUGAGAUUUUUCATT against E130016E03Rik”, the z-score was inactive: 1.83.

Take GCAUACCGGAUAAACUGAATT against Apoc1: the z-score is inactive: 2.23.

Take CCGCGUGACCAACUUUGUGTT against Map3k7ip1: the z-score is inactive: 0.606.

For the sequence GGAAAGACAGAAUAAUCCATT against Sparc, the z-score was inactive: 0.00144.

In the case of GGAUAGUGUGGUUUUAUAUTT against BC004701, the z-score was inactive: -0.0842.

GCAAGAACGCAAGAUUCAATT against Acoxl: the z-score was inactive: 1.12.

Consider CGUAUUGGUGGGAGAAAGATT against Parva, for which the z-score is inactive: -0.65.

GGUAGAAGAAUGCAUAAUGTT against Sema3e: the z-score is inactive: 1.59.

Regarding GGUGACAAGGAGAAAGAUGTT against Rnf151, the z-score is inactive: -0.269.

Regarding GGGCCUAUGUGCUUUAUAUTT against Usp8, the z-score is inactive: -2.31.

In the case of GGAUUCUGAAGAAAACGGGTT against Ibsp, the z-score was inactive: 0.482.

In the case of CCUACUCUCUCGUAGACUCTT against MGC69750, the z-score is inactive: -1.37.

GGAGGCUUCUAUUGCCAUATT against Olfr380: the z-score is inactive: -0.0518.

Consider GCUCAUUCCAGCAGUAAUGTT against Taf6, for which the z-score was inactive: 0.154.

GCGGUCACACCAAAAGUCATT against Olfr1466: the z-score is inactive: -0.337.

For CGCCCAUCUACGUUUUUACTT against Neil1, the z-score was inactive: 0.328.

Consider GCUACUCAUUUAGCAGAGATT against Olfr76, for which the z-score is inactive: -0.761.

“GGCAUCGAUGAACUCUACUTT against A730013G03Rik”: the z-score was inactive: -1.91.

Turning to GGCAUUGACUAUGAGAUAGTT against Gstz1, the z-score is inactive: -0.236.

Turning to GGUUCCAUUCUUGUCACCCTT against Lifr, the z-score is inactive: 1.12.

Regarding GGAGUUCAAGUAUACGUGUTT against Clic3, the z-score was inactive: 0.837.

Consider GGAUCCGUAUUCAGAUUUATT against Nrk, for which the z-score was inactive: -0.181.

Consider “GGGACAGUUUGGUGAAGGCTT against 3110045G13Rik”, for which the z-score is inactive: -1.08.

For GGUACAAAUGCAUUGAGAGTT against Fcamr, the z-score is inactive: -1.62.

On to GCGACAAUAUGAGUCACCUTT against MGC58341, for which the z-score is inactive: 0.491.

For the sequence GGGUAGAUUGAUUGUUGGATT against LOC212871, the z-score is inactive: -1.21.

Consider GGAAAUUCGUGCAUGAAGATT against Rutbc1, for which the z-score is inactive: -0.58.

Take CCAAUGAUGAAUCCCUUCATT against Olfr781: the z-score was inactive: -0.93.

The record behind these values is PubChem BioAssay AID1347423 (Functional Genomics Laboratory (NCATS/FGL), 2020).
